Assay in all cases: EMSA
(In general: In EMSA bound probe runs differently from free probe, usually more slowly.)

Amino acid sequences for entries named in this document (tags omitted). Residues count along the entry.
UniProt Q99929, 50-102: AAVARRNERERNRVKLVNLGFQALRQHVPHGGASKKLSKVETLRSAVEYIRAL
UniProt Q99929, 50-102 R55K: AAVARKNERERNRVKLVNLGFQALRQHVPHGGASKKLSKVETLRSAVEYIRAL
UniProt Q99929, 50-102 R55K/V63R: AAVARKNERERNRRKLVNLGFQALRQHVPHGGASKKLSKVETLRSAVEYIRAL
UniProt Q99929, 50-102 V63R: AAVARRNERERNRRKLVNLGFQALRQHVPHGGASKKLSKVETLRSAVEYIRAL

Series [1] deals with ASCL2 DBD wild type (human) (UniProt Q99929). Particulars: lower affinity than CAGCTG probe; 32P EMSA: ~50 nM probe, 0.5/1/2 uM protein, 30 min, reagents as in Feng et al., gel at 4 C; recombinant protein; protein details: N-terminal 6xHis, mScarlet fusion; label: 32P (SRI primer strand).
The target in series [2] is ASCL2 DBD R5K R55K (human) (UniProt Q99929). The note with it: lower affinity than CAGCTG probe; 32P EMSA: ~50 nM probe, 0.5/1/2 uM protein, 30 min, reagents as in Feng et al., gel at 4 C; recombinant protein; protein details: N-terminal 6xHis, mScarlet fusion; label: 32P (SRI primer strand).
Series [3] concerns the target ASCL2 DBD R5K+V13R R55K,V63R (human) (UniProt Q99929). The note with it: lower affinity than CACGTG probe; 32P EMSA: ~50 nM probe, 0.5/1/2 uM protein, 30 min, reagents as in Feng et al., gel at 4 C; recombinant protein; protein details: N-terminal 6xHis, mScarlet fusion; label: 32P (SRI primer strand).
Series [4] addresses ASCL2 DBD V13R V63R (human) (UniProt Q99929). The note with it: lower affinity than CACGTG probe; 32P EMSA: ~50 nM probe, 0.5/1/2 uM protein, 30 min, reagents as in Feng et al., gel at 4 C; recombinant protein; protein details: N-terminal 6xHis, mScarlet fusion; label: 32P (SRI primer strand).

The exact form of at least one protein or probe is not confirmed. A weaker result is weaker than the reference pair of the same experiment.

As to “TAGCCAATAACTTCGTCCCTCACGTGCATATAAGGAAGATCTAACCACCAATTTGG (double strand) [CACGTG probe]”, the binding result in series [1] and in series [2] was “binds more weakly” in each case.
Consider “TAGCCAATAACTTCGTCCCTCAGCTGCATATAAGGAAGATCTAACCACCAATTTGG (double strand) [CAGCTG probe]”, for which the binding result in series [3] and in series [4] was “binds more weakly” each time.

For the origin of these results see article PMC12392098.
